## Library screen at single concentrations

From ChEMBL document CHEMBL3988442, “University of Dundee, Small-Polar-MMV Screening Library” (2021).

Values are the deposited “Percent Effect”, in %.
The record does not define 0% and 100%; most values in the screen are far below 50% and negative numbers occur (in some assays of this library far below -100).
This is an unselected part of the compounds tested.
Two or more numbers in one place are separate tests of the same structure; such repeats can differ widely.

Mtb glucose medium: 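Phenotypic screen: M. tuberculosis growth, glucose 7H9 medium, 3 days; the read-out is not stated. Tested at 50 µM. Direction is inferred from retests: higher values go with more growth inhibition. Of about 69,000 compounds tested this way, about 760 (1.1%) reached 50% or more in at least one test.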
Mtb cholesterol medium: 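Growth of Mycobacterium tuberculosis over 4 days (cholesterol / DPPC medium with tyloxapol); the read-out is not stated. Tested at 50 µM. The record gives no direction; compounds that gave an IC50 in retests scored well above the rest, so higher reads as more growth inhibition. Of about 69,000 compounds tested this way, about 370 (0.54%) reached 50% or more in at least one test.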

| structure | Mtb glucose medium | Mtb cholesterol medium |
|---|---|---|
| `CN1CCN(c2cc(N3CCCC3CO)ncn2)Cc2ccccc21` (stereo not given) | 1.167 | 1.475 |
| `CCCOC(=O)N1CCCn2nc(C(=O)Nc3ccccc3)cc2C1` | 4.3 & -2.439 | -18.11 |
| `Cc1ncc(CN2CCCC2c2ccc(C(=O)NCc3ccoc3)s2)s1` (stereo not given) | 22.83 | 9.084 |
| `CCC(O)CNC(=O)c1cc(COc2ccc(OC)cc2Cl)[nH]n1` (stereo not given) | -19.8 & 12.26 | 14.26 |
| `CCc1cc(CNC(=O)N2Cc3ccccc3N(C)CC2C)[nH]n1` (stereo not given) | -1.422 & 11.21 | -4.157 |
| `Cc1cncc(C(=O)N[C@@H]2CC[C@@H](N3CCOCC3)[C@@H]2O)c1` | -0.5552 | 0.9132 |
| `Cc1cccn2c(=O)cc(CSCC(=O)Nc3nnc(C(C)C)s3)nc12` | 11.65 | -15.72 |
| `CCCc1nc(CN2CCOC(CNc3cccnn3)C2)cs1` (stereo not given) | 5.875 | -1.865 |
| `Cc1ncsc1CNC(=O)N1CCN(Cc2ccccc2)CC1C` (stereo not given) | -17.27 | -11.47 |
| `Cc1csc(CNC(=O)NCc2ccc3c(c2)OCCO3)n1` | 4.6 | 4.005 |
| `O=C(O)C(F)(F)F.[H][C@@]12COC[C@@H](C(=O)N3CCOCC3)[C@]1([H])CN(C1CCOCC1)C2` | -3.725 & 0.5153 | 7.776 |
| `CCC(C)N(Cc1cccnc1)C(=O)CCSC` (stereo not given) | -31.97 | 0.4807 |
| `CC(C)(C)NC(=O)C1CSCN1S(=O)(=O)c1cccc(F)c1` (stereo not given) | -11.98 & -0.5894 | -23.83 |
| `O=C(N1CCOCC1)n1cnc2ccccc21` | 15.71 | -3.287 |
| `CN(CC(=O)N1CCCC1)C(=O)c1ccccc1F` | -1.578 & 8.989 | -6.59 |
| `[H][C@@]12CCN(Cc3ccncc3)C[C@]1([H])O[C@H](C(=O)N(C)C)C2` | 7.169 | -5.249 |
| `CS(=O)(=O)NCc1noc2c1CN(C(=O)c1ccsc1)CC2` | -5.124 & 2.271 | 7.945 |
| `O=C1CCOC[C@]2(CN(Cc3ccccc3)C[C@H]2c2cccnc2)N1` | -40.52 | 7.328 & -14.69 |
| `O=C(NCc1ccco1)Nc1ccc2nc(N3CCOCC3)oc2c1` | 0.1975 | 12.12 |
| `Cc1cnccc1-n1nc(C(C)C)nc1CCc1cnccn1` | 25.02 | 1.008 |
| `CCC1(CC)CC(=O)N(CC(O)c2ccc(Cl)cc2)C1=O` (stereo not given) | -12.47 | -22.78 |
| `O=C(NCCNc1ncccn1)C1CCN(C(=O)c2ccoc2)CC1` | -1.882 & 23.59 | 7.818 |
| `Cl.[H][C@@]12C[C@@H](C(=O)NC(C)C)O[C@]1([H])CCN2` | 1.541 | 12.94 |
| `CCOCCN(C)C(=O)Nc1cccc2c1CCN(CC)C2` | -16.59 | -18.63 |
| `COc1ccc(S(=O)(=O)NCC(c2cccn2C)N(C)C)cc1F` (stereo not given) | -3.019 | 15.35 |
| `COc1ccc2c(c1)NC(C1CCNCC1)NS2(=O)=O` (stereo not given) | -19.79 | -22.88 |
| `CC[C@H]1CN(C(=O)CCn2c(C)cccc2=O)CC[C@@]1(C)O` | 10.19 | -13.1 & -8.871 |
| `Cc1csc(N2CCCN(Cc3noc(C)n3)CC2)n1` | 12.75 | 9.974 |
| `CCc1ccc(C(=O)N(CC(F)(F)F)C2CCCOC2)o1` (stereo not given) | -3.376 | -24.52 |
| `Cn1cnc2cc(C(=O)N3CCC(c4ccccc4C(=O)O)C3)cnc21` (stereo not given) | -0.8449 & -9.269 | 3.307 |
| `Cc1cccc(OCC2CCCN(C(=O)CCn3ccccc3=O)C2)c1` (stereo not given) | 9.435 | -16.27 |
| `COc1cc2c(nn1)CCN(Cc1noc(CC(C)C)n1)C2` | 5.007 & 6.095 | 2.053 |
| `Cc1nn(C)c2cn(C(C)C(=O)NCc3cccc(F)c3)nc12` (stereo not given) | -5.26 | -23.04 |
| `CCOc1cc(/C=C/c2ncc(C(=O)O)s2)cc(Cl)c1OC` | 0.6301 | -14.76 |
| `Cc1noc(C)c1CN(C)C(=O)C1(NS(C)(=O)=O)CCCCC1` | -2.333 & -4.545 | -12.02 |
| `Cc1cnn(CC(C)NCC(=O)NCCc2cccs2)c1` (stereo not given) | -5.196 | -12.08 |
| `Cn1nc(CNC(=O)c2ccc(OC(F)(F)F)cc2)c2c1CCOC2` | 6.7 | 7.221 |
| `[H][C@]12CN(Cc3ccoc3)CCN1C[C@@H](c1ccccc1)[C@@H]2C(=O)NC` | 0.02826 | -6.774 |
| `O=S(=O)(CCNC1CCc2ncnn2C1)c1ccccc1` (stereo not given) | 12.61 | 1.155 |
| `CC(C)N(C)CCNC(=O)NCc1ccccc1-n1cccn1` | -29.54 | -27.33 |
| `Cc1noc(C2CCN(C(=O)c3cc(Br)ccc3F)CC2)n1` | -34.5 | -7.847 |
| `Cc1cc(N(C)C)nc(C2CCCN2)n1.Cl.Cl` (stereo not given) | 0.8986 | -10.26 |
| `O=C(CCc1ccccc1F)NC1CCCN(c2ccccn2)C1` (stereo not given) | 26.13 | 9.221 & 2.172 |
| `CCN1CCOCC2(CCCN(C(=O)c3ccccc3F)C2)C1.O=C(O)C(F)(F)F` (stereo not given) | -28.24 | 12.19 & -5.026 |
| `Cc1c(C)n2c(SCC(=O)N3CCOCC3)nnc2[nH]c1=O` | 39.33 & -2.729 | -9.153 |
| `CNC(=O)c1ccc2c(c1)C1(CCN(CC(C)C)CC1)C(=O)N2.O=C(O)C(F)(F)F` | 20.02 | -1.153 |
| `Cc1ccc2oc(C(=O)N3CCCC(n4ccnc4C)C3)cc2n1` (stereo not given) | 2.148 | 4.758 |
| `CCc1cnc(CN(C)C2CCN(CC(=O)Nc3cc(C)on3)C2)o1` (stereo not given) | -25.6 | -16.02 |
| `COc1ccccc1CC(=O)N(CCN1CCOCC1)Cc1ccco1` | -4.193 | -9.644 & -12.96 |
| `COc1ccc(C2CCCCCN2S(N)(=O)=O)cc1` (stereo not given) | -12.44 | -36.58 |
| `CSCC(=O)Nc1ncn(Cc2cccc(Br)c2)n1` | -10.31 | -13.27 |
| `CCn1cc2c(n1)CN(Cc1ccc(C)o1)CC2COCC1CC1.O=C(O)C(F)(F)F` (stereo not given) | 6.834 | -20.68 |
| `Cc1cc(C(=O)N2CCC3(C2)CN(c2cccnc2)C(=O)CN3C)[nH]n1.O=C(O)C(F)(F)F.O=C(O)C(F)(F)F` (stereo not given) | 14.9 | -10.3 |
| `CCC1COCCN1C(=O)NCc1cccc(-c2cnn(C)c2)c1` (stereo not given) | 1.963 | 11.59 |
| `COCCCN1CCCN(C(C)C(=O)Nc2ccnn2C(C)C)CC1` (stereo not given) | 28.78 | 2.937 & 9.082 |
| `Cc1cccnc1CC(C)Nc1nc(N)nc2c1CCNC2` (stereo not given) | 25.76 | -24.87 |
| `Cn1c(CN2CCCC2)nnc1C1CCCN(C(=O)N2CCOCC2)C1` (stereo not given) | -21.38 | -9.177 |
| `COCCSc1ccc(C(C)NC(=O)Nc2cn[nH]c2)cc1` (stereo not given) | 11.07 & -7.559 | -12.21 |
| `O=C(Cn1ncc2c(c1=O)CCCCC2)Nc1cccc2[nH]ccc12` | 6.456 & 8.284 | 15.62 |
| `CN1CCC(NC(=O)Nc2cnn(-c3ccccc3Cl)c2)CC1` | 17.24 | 10.63 |
| `CCCc1nc(CN2CCc3c(ncn3C3CC3)C2)cs1` | 8.641 | -16.48 |
| `Cc1ccc(C2(O)CCN(C(=O)c3sccc3S(N)(=O)=O)CC2)nc1` | 2.547 | 1.107 |
| `Cc1ccc(C)c(S(=O)(=O)N2CCN(C)C3(CCC(=O)N(C)CC3)C2)c1` (stereo not given) | 1.738 & 5.819 | 3.041 |
| `O=C(NC1CC1)N1CCc2ccc(=O)n(CCN3CCCC3)c2CC1.O=C(O)C(F)(F)F` | 2.647 & 22.99 | 21.35 |
| `N#Cc1ccsc1NC(=O)CCN1CCn2c(nnc2C2CC2)C1` | -1.674 | 5.523 |
| `O=C(O)C(F)(F)F.O=C(O)C(F)(F)F.[H][C@@]12CN(Cc3cnn(C)c3)CCO[C@]1([H])CN(C1CCCC1)C2` | -36.44 & -9.836 | -8.768 & -25.42 |
| `Cc1ncccc1Oc1ncnc(N2CCC3(CCCO3)CC2)c1C` | 39.12 | 31.12 |
| `O=C1OCCN1CCSc1nnnn1CC(F)(F)F` | -18.28 | -21.88 |
| `COc1ccc(OCc2cc(C(=O)N3CCC(O)CC3)n[nH]2)c(Cl)c1` | -1.27 | 4.532 |
| `COc1ccc(C2C3=C(CCCC3=O)Nc3nc(SC)nc(N)c32)cc1` (stereo not given) | 14.45 | -29.78 |
| `COCC(=O)N1CCC(C(=O)Nc2ccc(C(C)=O)cc2)CC1` | -2.891 | -1.561 |
| `CC1CN(C(=O)Nc2cc(C(F)(F)F)c[nH]c2=O)CC(C)(C)O1` (stereo not given) | -26.39 | -27.34 & -6.441 |
| `COCCC(=O)Nc1ccnc(Oc2ccccc2)c1` | -17.21 & 3.724 | -8.822 |
| `Cc1nc(C2CN(Cc3scnc3C)CCO2)cc(N(C)C)n1` (stereo not given) | 10.01 | 4.409 |
| `COc1ccc(CC2CCCN2CCCC#N)cc1` (stereo not given) | 10.85 | 5.402 |
| `Cn1ccc(CN2CCC(CC(=O)N3CCCC3)CC2)cc1=O` | -9.48 | -0.7034 |
| `CCNc1ncc(CN2C[C@H](C3CC3)[C@@H](N)C2)cn1` | -8.587 | 5.321 |
| `O=C(CC1CN(Cc2ccccc2)CCO1)NC1CCSCC1` (stereo not given) | 11.65 | -19.28 |
| `O=C(O)C(F)(F)F.O=C(O)C(F)(F)F.[H][C@]12CCC[C@@]1(COCC1CC1)CN(Cc1ccccn1)C2` | 13.95 & 12.9 | 14.98 |
| `O=C(Nc1nncs1)N(Cc1cccc(F)c1)C1CC1` | -8.803 | -24.05 |
| `CCNC(=O)c1nc2c(s1)CCCN2S(C)(=O)=O` | -37.42 | -36.32 |
| `Cc1csc(N2CCCN(C(=O)C(C(C)C)n3cncn3)CC2)n1` (stereo not given) | -8.445 | -20.28 |

The last 9 entries again:

{"structure": "Cc1nc(C2CN(Cc3scnc3C)CCO2)cc(N(C)C)n1", "stereo": "stereo not given", "Mtb glucose medium": 10.01, "Mtb cholesterol medium": 4.409}
{"structure": "COc1ccc(CC2CCCN2CCCC#N)cc1", "stereo": "stereo not given", "Mtb glucose medium": 10.85, "Mtb cholesterol medium": 5.402}
{"structure": "Cn1ccc(CN2CCC(CC(=O)N3CCCC3)CC2)cc1=O", "Mtb glucose medium": -9.48, "Mtb cholesterol medium": -0.7034}
{"structure": "CCNc1ncc(CN2C[C@H](C3CC3)[C@@H](N)C2)cn1", "Mtb glucose medium": -8.587, "Mtb cholesterol medium": 5.321}
{"structure": "O=C(CC1CN(Cc2ccccc2)CCO1)NC1CCSCC1", "stereo": "stereo not given", "Mtb glucose medium": 11.65, "Mtb cholesterol medium": -19.28}
{"structure": "O=C(O)C(F)(F)F.O=C(O)C(F)(F)F.[H][C@]12CCC[C@@]1(COCC1CC1)CN(Cc1ccccn1)C2", "Mtb glucose medium": "13.95 & 12.9", "Mtb cholesterol medium": 14.98}
{"structure": "O=C(Nc1nncs1)N(Cc1cccc(F)c1)C1CC1", "Mtb glucose medium": -8.803, "Mtb cholesterol medium": -24.05}
{"structure": "CCNC(=O)c1nc2c(s1)CCCN2S(C)(=O)=O", "Mtb glucose medium": -37.42, "Mtb cholesterol medium": -36.32}
{"structure": "Cc1csc(N2CCCN(C(=O)C(C(C)C)n3cncn3)CC2)n1", "stereo": "stereo not given", "Mtb glucose medium": -8.445, "Mtb cholesterol medium": -20.28}